## Results of single-concentration screens

The values are deposited in ChEMBL (CHEMBL3988442, “University of Dundee, Small-Polar-MMV Screening Library” (2021)).

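Growth of Mycobacterium tuberculosis over 4 days (cholesterol / DPPC medium with tyloxapol); the read-out is not stated. Compounds at 500 µM. The record gives no direction; compounds that gave an IC50 in retests scored well above the rest, so higher reads as more growth inhibition. Of about 18,000 compounds tested this way, about 900 (5%) reached 50% or more in at least one test.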

Results are given as percent effect.
The controls that fix the scale are not given in the record; negative values are as filed.
This is an unselected part of the compounds tested.

Result for Cc1occc1C(=O)N1CCN(c2nccs2)CC1 was 8.246%.
Result for COc1cnc(C#N)cn1 was -0.4139%.
Result for CC(C)N1CCC(NC(=O)c2ccc3[nH]nnc3c2)C1 (stereo not given) was -7.364%.
Result for CCCC(C)C(=O)NCc1c[nH]nc1C (stereo not given) was 9.665%.
Result for NC(=O)CSc1nnc(-c2ccccc2)n1CCCO was 5.663%.
Result for CCN(C1CC1)S(=O)(=O)c1ccc(OC)c(C(N)=O)c1 was -6.355%.
Result for O=C(NCCCN1CCCC1)c1ccccn1 was 48.16%.
Result for CC(=O)NCc1ccc(-c2nc(C3CC3)no2)s1 was 31.18%.
Result for Cc1cc(C)c2nc(CN3CCC(N)C3)cc(O)c2c1 (stereo not given) was 7.955%.
Result for C=C(C)CN(C)CC1CCN(CCO)CC1 was -27.56%.
Result for CCOCCC1(C(=O)NC2=NCCS2)CCCC1 was 8.424%.
Result for O=C1CC2(CCSC2)C(=O)N1Cc1ccc(Cl)cn1 (stereo not given) was -11.39%.
Result for Cc1cc(=O)cc(C(=O)N2CCCC(C)(C#N)C2)o1 (stereo not given) was -6.401%.
Result for N#Cc1ccc(S(=O)(=O)N2CCNC(=O)C2)cc1 was 3.616%.
Result for O=S(=O)(C1CCCNC1)N1CCc2ccccc21 (stereo not given) was 13.7%.
Result for Cc1noc(C)c1C(=O)N1C[C@@H](CO)[C@H](N(C)C)C1 was -11.21%.
Result for CC(C)(C)NC(=O)CNC1CCCc2occc21 (stereo not given) was 27.7%.
Result for Cc1nnc(NC(=O)c2c(C)noc2C)s1 was -10.43%.
Result for CN(C)CCC(N)c1ccccc1 (stereo not given) was 21.47%.
Result for CCN1C(=O)CC(NCc2ccc3c(c2)OCO3)C1=O (stereo not given) was 8.862%.
Result for COCC(=O)Nc1cnc(-c2cccnc2)nc1 was 5.43%.
Result for Cn1c(=O)n(C)c2cc(S(N)(=O)=O)ccc21 was -15.12%.
Result for Cc1cccc(OCC(=O)NCC2CCNCC2)c1 was 9.253%.
Result for Cc1ccccc1C1CNC(=O)C1 (stereo not given) was 3.351%.
Result for COc1ncccc1CNc1cnn(C)c(=O)c1Cl was -13.71%.
Result for NCC(CO)Cc1ccsc1 (stereo not given) was 2.558%.
Result for Cc1ccccc1CS(=O)(=O)NCCCN was 7.848%.
Result for OCCCNC(c1ccccc1)c1ccccn1 (stereo not given) was 53.99%.
Result for CCc1nnsc1C(=O)Nc1nnc(C)s1 was 14.99%.
Result for Cc1nc[nH]c1C(=O)NCC1CCN(CC(C)C)C1 (stereo not given) was 4.923%.
Result for CC(C)n1nnnc1Cn1ccc2sccc2c1=O was -10.03%.
Result for N[C@H]1CC[C@@H](n2cc(Br)cn2)CC1 was -11.87%.
Result for COc1ncccc1NC(=O)N1CCCC1 was -5.371%.
Result for CN1C[C@@H]2CN(Cc3ccccc3OCCO)C[C@@H]2C1 was 1.316%.
Result for CCC[C@H]1CN(C(=O)CCn2cnnn2)C[C@@H]1N was 11.16%.
Result for NC1CCOC2(CCCCC2)C1 (stereo not given) was 2.792%.
Result for COc1ccc(OCCN2CCC(C(N)=O)CC2)cc1 was -2.766%.
Result for O=C(NCCSCc1cccc(Cl)c1)C1CNCCO1 (stereo not given) was 73.2%.
Result for CC(C)Oc1ccccc1CN(C)CC(N)=O was 2.388%.
Result for Cc1nnc(SCc2ccc(F)cc2Cl)n1CC(N)=O was -8.58%.
Result for CSc1ncc(CNCC2(O)CCCNC2)n1C (stereo not given) was -13.64%.
Result for c1ccc(CNCc2c[nH]nn2)cc1 was 14.39%.
Result for NCCCNS(=O)(=O)c1ccc(Br)c(F)c1 was 34.41%.
Result for Cc1ccc(C(CN)N2CCOCC2)s1 (stereo not given) was 23.96%.
Result for CCOCc1nnc(NCc2cccc(OC)n2)o1 was 18.45%.
Result for CC(NCCN1CCOCC1)C1CCOCC1 (stereo not given) was 8.751%.
Result for Cn1ccc(NC(=O)COc2ccccc2)n1 was 9.217%.
Result for Cc1n[nH]c(NCc2ccsc2)n1 was -2.061%.
Result for CC(N)C1CCCOC1 (stereo not given) was -2.2%.
Result for CC1CCCN(C(=O)CN2CCCCC2=O)C1 (stereo not given) was 9.625%.
Result for CN(C)CCC(O)c1ccccc1 (stereo not given) was 1.523%.

Once more, the final 5:

* Cn1ccc(NC(=O)COc2ccccc2)n1 : 9.217%
* Cc1n[nH]c(NCc2ccsc2)n1 : -2.061%
* CC(N)C1CCCOC1 (stereo not given) : -2.2%
* CC1CCCN(C(=O)CN2CCCCC2=O)C1 (stereo not given) : 9.625%
* CN(C)CCC(O)c1ccccc1 (stereo not given) : 1.523%